The record followed here is PubChem BioAssay AID248 (DTP/NCI, 2004).

The assay relates to L1210 leukemia ip in BDF1 mice, survival T/C. As to the kind of experiment: NCI In Vivo Anticancer Drug Screen. Data for tumor model L1210 Leukemia (intraperitoneal) in B6D2F1 (BDF1) mice. To be noted: T/C endpoint: mean survival time, higher T/C = longer survival.
Setting [1] is: dose: 200.0 mg/kg/injection, schedule: Q01DX009 (ip), vehicle: saline.
[2] abbreviates: dose: 100.0 mg/kg/injection, schedule: Q01DX009 (ip), vehicle: saline with Tween-80.
[3] abbreviates: dose: 400.0 mg/kg/injection, schedule: Q01DX009 (ip), vehicle: saline with Tween-80.
Setting [4] is: dose: 200.0 mg/kg/injection, schedule: Q04DX003 (ip), vehicle: Klucel (hydroxypropylcellulose) (HPC).
The mark [5] stands for this setting: dose: 400.0 mg/kg/injection, schedule: Q04DX003 (ip), vehicle: Klucel (hydroxypropylcellulose) (HPC).
[6] abbreviates: dose: 400.0 mg/kg/injection, schedule: Q04DX002 (ip), vehicle: saline.
Setting [7] is: dose: 400.0 mg/kg/injection, schedule: Q01DX009 (ip), vehicle: Klucel (hydroxypropylcellulose) (HPC).
Setting [8] is: dose: 400.0 mg/kg/injection, schedule: Q01DX001 (ip), vehicle: saline.

The list does not hold the whole screen: it is rich in T/C values a quarter to a half above the control, in often repeated tests (any T/C) and in doses without a T/C. Further doses and runs are listed elsewhere. T/C gives the treated animals as a percentage of the vehicle group. Some doses have a count of surviving animals in place of a T/C: the source files T/C as zero there, which appears to mark a toxic dose or a test without result, not a measured value. Some doses without a T/C left all or most animals alive at the check, yet need not have been tolerated: the source hardly ever lists a survival T/C far under the control, and the zero likely stands for such cases as well. Survivors were counted at the toxicity check, usually on the fifth day, unless a day is given; later deaths do not show. Schedule codes are those of the source, taken here to give the interval after Q, in days (D) or hours (H), and the number of doses after X. Some schedule codes hold Z or #, which are not explained here. Some molecules as drawn cover several salts, stereoisomers or complexes of the source; a dose is that of the sample tested. Marks such as (2×) count equal records among those shown. Some doses were run more than once; their values stand side by side, smallest first. Where survival is the endpoint, the PubChem record calls one and a half times the control and up active, and a quarter to a half above the control has no call in these data; cut-offs in other NCI protocols can differ.

`CNNC(=O)NC`: the survivor count under setting [1] was 0 of 6.
For the compound `c1cc[c]([Pb]([c]2ccccc2)([c]2ccccc2)[n]2ccc3ccccc32)cc1`, the survivor count is given as 3 of 6 (dose: 6.25 mg/kg/injection, schedule: Q01DX009 (ip), vehicle: saline with Tween-80); 0 of 6 (dose: 12.5 mg/kg/injection, schedule: Q01DX009 (ip), vehicle: acetone); 0 of 6 (dose: 25.0 mg/kg/injection, schedule: Q01DX009 (ip), vehicle: acetone); 0 of 6 (dose: 50.0 mg/kg/injection, schedule: Q01DX009 (ip), vehicle: acetone); 0 of 6 under setting [2]; 0 of 6 (dose: 200.0 mg/kg/injection, schedule: Q01DX009 (ip), vehicle: saline with Tween-80). For the same compound, under setting [3], the survivor count is reported as 0 of 6.
As for `Cc1cc(C)c(N)c(C)n1`, the survivor count runs as follows: (dose: 100.0 mg/kg/injection, schedule: Q04DX003 (ip), vehicle: Klucel (hydroxypropylcellulose) (HPC)) 1 of 6; under setting [4], 0 of 6; under setting [5], 0 of 6.
`CCCC[n+]1[nH]oc(=O)c1C(=O)[O-]`: the survivor count under setting [4] is 2 of 6 and the survivor count under setting [5] was 0 of 6.
In the case of `O=C(O)c1ccccc1Br`, the survivor count (dose: 400.0 mg/kg/injection, schedule: Q04DX002 (ip), vehicle: saline with Tween-80) is 3 of 3.
As to `CCCCCC(CN(C)C)C(O)/C=C\c1ccccc1` (configuration not stated), the survivor count was 6 of 6 (dose: 100.0 mg/kg/injection, schedule: Q04DX003 (sc), vehicle: steroid suspending solution); 6 of 6 (dose: 200.0 mg/kg/injection, schedule: Q04DX003 (sc), vehicle: steroid suspending solution); 4 of 6 (dose: 400.0 mg/kg/injection, schedule: Q04DX003 (sc), vehicle: steroid suspending solution).
Regarding `CS(=O)(=O)CCS(=O)(=O)c1cccs1`, for the setting “dose: 200.0 mg/kg/injection, schedule: Q01DX009 (ip), vehicle: Klucel (hydroxypropylcellulose) (HPC)”, the survivor count was 3 of 6.
In the case of `CS(=O)(=O)c1nc2ccc([N+](=O)[O-])cc2s1`, the survivor count is on record as 0 of 3 (dose: 200.0 mg/kg/injection, schedule: Q04DX002 (ip), vehicle: saline) and 0 of 3 under setting [6].
Take `Cc1cn(C)c2nccnc12`: the survivor count is given as 0 of 6 (dose: 200.0 mg/kg/injection, schedule: Q01DX009 (ip), vehicle: water) and 0 of 6 (dose: 400.0 mg/kg/injection, schedule: Q01DX009 (ip), vehicle: water).
With `CCC(=O)/C=C/C1=C(C)CCCC1(C)C`, the survivor count under setting [3] is recorded as 3 of 6.
As to `O=C(OCc1ccccc1)C(=O)OCc1ccccc1`, under setting [7], the survivor count is 2 of 6.
As to `CC(=O)C(C#N)C(C)=O.CC(=O)C(C#N)C(C)=O.[Mn]`, the survivor count by setting is: under setting [1], 0 of 6; (dose: 400.0 mg/kg/injection, schedule: Q01DX009 (ip), vehicle: saline) 0 of 6; (dose: 400.0 mg/kg/injection, schedule: Q04DX003 (ip), vehicle: saline) 3 of 6.
Take `O=c1[nH][nH]c2ccccc12`: the survivor count (dose: 62.5 mg/kg/injection, schedule: Q01DX Z (ip), vehicle: other) is recorded as 6 of 6.
As to `Cc1ccc2cccc([N+](=O)[O-])c2n1`, under “dose: 400.0 mg/kg/injection, schedule: Q04DX003 (ip), vehicle: saline with Tween-80”, the survivor count is reported as 0 of 6.
In the case of `CN(C)C(=O)c1ccc(NC(=O)N(CCCl)N=O)cc1`, the T/C (dose: 4.0 mg/kg/injection, schedule: Q01DX001 (ip), vehicle: other) is 136 % of control. In addition, the survivor count was 6 of 6 (dose: 62.0 mg/kg/injection, schedule: Q01DX001 (ip), vehicle: other); 6 of 6 (dose: 125.0 mg/kg/injection, schedule: Q01DX001 (ip), vehicle: other); 0 of 6 (dose: 187.0 mg/kg/injection, schedule: Q01DX001 (ip), vehicle: other); 0 of 6 (dose: 250.0 mg/kg/injection, schedule: Q01DX001 (ip), vehicle: other); 0 of 6 (dose: 375.0 mg/kg/injection, schedule: Q01DX001 (ip), vehicle: other); 0 of 6 (dose: 500.0 mg/kg/injection, schedule: Q01DX001 (ip), vehicle: other). Besides, for the setting “dose: 750.0 mg/kg/injection, schedule: Q01DX001 (ip), vehicle: other”, the survivor count is reported as 0 of 6.
With `CCN(CC)Cc1ccc([N+](=O)[O-])cc1`, under setting [6], the survivor count is on record as 0 of 3.
Consider `CS(=O)(=O)OCCN(CCOS(C)(=O)=O)c1ccc(C=Nc2ccc3oc(=O)ccc3c2)cc1`, for which the T/C was 130 % of control (dose: 3.0 mg/kg/injection, schedule: Q01DX015 (ip), vehicle: carboxymethylcellulose (CMC)); 140 % of control (dose: 6.0 mg/kg/injection, schedule: Q01DX015 (ip), vehicle: carboxymethylcellulose (CMC)); 136 % of control (dose: 12.0 mg/kg/injection, schedule: Q01DX015 (ip), vehicle: carboxymethylcellulose (CMC)); 148 % of control (dose: 24.0 mg/kg/injection, schedule: Q01DX015 (ip), vehicle: carboxymethylcellulose (CMC)).
As to `O=[N+]([O-])c1cc(Cl)c(Cl)c([N+](=O)[O-])c1O`, the survivor count is 5 of 6 (dose: 200.0 mg/kg/injection, schedule: Q04DX003 (ip), vehicle: acetone); 0 of 6 (dose: 225.0 mg/kg/injection, schedule: Q01DX009 (ip), vehicle: acetone); 0 of 6 (dose: 335.0 mg/kg/injection, schedule: Q01DX009 (ip), vehicle: acetone); 1 of 6 under setting [8].
Take `CC(C)(C)/C=N/NP(Br)(c1ccccc1)(c1ccccc1)c1ccccc1`: the survivor count is, setting by setting: (dose: 75.0 mg/kg/injection, schedule: Q01DX001 (ip), vehicle: saline) 0 of 6; (dose: 150.0 mg/kg/injection, schedule: Q01DX001 (ip), vehicle: saline) 0 of 6; (dose: 300.0 mg/kg/injection, schedule: Q01DX001 (ip), vehicle: saline) 0 of 6.
Take `c1cc[n+](Cc2nc3ccccc3[nH]2)cc1`: the survivor count (dose: 200.0 mg/kg/injection, schedule: Q01DX001 (ip), vehicle: saline) was 1 of 6 and 3 of 6; the survivor count under setting [8] was 0 of 6 (2×).
`Cc1cccc2cc3cccc(C)[n+]3cc12`: the survivor count runs as follows: (dose: 40.0 mg/kg/injection, schedule: Q01DX001 (ip), vehicle: other) 1 of 6; (dose: 80.0 mg/kg/injection, schedule: Q01DX001 (ip), vehicle: other) 0 of 6; (dose: 100.0 mg/kg/injection, schedule: Q01DX001 (ip), vehicle: other) 0 of 6; (dose: 200.0 mg/kg/injection, schedule: Q01DX001 (ip), vehicle: other) 0 of 6; (dose: 400.0 mg/kg/injection, schedule: Q01DX001 (ip), vehicle: other) 0 of 6.
Consider `CC(=O)c1ccc(NCC2N=C(N)N=C(N)N2c2ccccc2)cc1` (configuration not stated), for which the survivor count runs as follows: under setting [7], 0 of 6; under setting [5], 1 of 6.
For the compound `CC(=O)C1CCCC(=O)/C=C/C(=O)O1` (configuration not stated), the survivor count (dose: 400.0 mg/kg/injection, schedule: Q04DX002 (ip), vehicle: Klucel (hydroxypropylcellulose) (HPC)) is 0 of 3.
As to `C[N+](C)(C)CC(=O)N/N=C\c1c(O)ccc2ccccc12`, under setting [5], the survivor count is listed as 0 of 3.
Still for that read-out and setting: in the case of `C=CCc1ccccc1NC(=O)NCCCl` it was 3 of 6.
On to `COC(=O)C(F)C(Br)C(=O)OC` (configuration not stated), for which the survivor count under setting [2] is 5 of 10.
